{"source": "PubChem BioAssay AID493014", "about": "(National Center for Advancing Translational Sciences (NCATS), 2011)", "note": "Screen size: about 340,000 compounds; about 170 (0.05%) were called active. The inconclusive results got no clear call from the source; some entries with a clear call stand among them for comparison. Calls come from the whole dose curve; as a rule, active = well fitted inhibition curve with a large enough effect in the signal ratio, with a control signal flat (not every such curve was filed as active); inconclusive = small, poorly fitted or top-dose-only effect, or effect the other way, or a change in a side signal; inactive = flat fitted curve, though single readings scatter; the % refers to the signal ratio. Potencies of inconclusive entries are doubtful fits and often do not repeat. Potency is the fitted concentration of half-maximal effect.", "data": [{"assay": "qHTS Assay to Find Inhibitors of Chronic Active B-Cell Receptor Signaling;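 for activity change, negative = inhibition: plate controls were basal doxycycline-induced cells for no effect and cells given 10 µM MG132 for full effect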", "settings": "ABC-DLBCL IkBa-CBG/CBR reporter, luminescence ratio (green luciferase fused to IkBa over red control in TMD8 lymphoma cells), 4 h; activity change, negative = inhibition: at 46.1 µM (top of the series) unless noted", "in_short": "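Concentration-response series (up to 46 uM) were applied to TMD8 dual-reporter cells for 4 h at 37C with doxycycline. Green/red ratio, after filter-overlap correction, defined %Activity; red signal alone was normalised to basal cells and zero luminescence.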", "values": [{"compound": "O=C(NCc1ccccn1)c1cc2cc(Br)ccc2oc1=O", "activity change, negative = inhibition": "inconclusive: 6.94%"}, {"compound": "O=C(Nc1nccs1)c1ccc(NC(=O)c2ccco2)cc1", "Potency": "inconclusive: 1.3 µM [rising, partial curve]"}, {"compound": "Cc1ccnc(NS(=O)(=O)c2ccc(NC(=O)CCc3ccccc3)cc2)n1", "activity change, negative = inhibition": "inactive: -17.3%"}, {"compound": "O=C1C2C3C=CC(C3=C(c3ccccc3)c3ccccc3)C2C(=O)N1CCO", "note": "(stereo not drawn)", "activity change, negative = inhibition": "inconclusive: -6.35%"}, {"compound": "CCOc1cc(/C=N/Nc2nnc(C)n2N)ccc1OC(C)=O", "Potency": "inconclusive: 35.5 µM [falling, partial curve, poor fit]"}, {"compound": "O=C(Nc1nnc(S(=O)(=O)N2CCCCCC2)s1)c1cccc(Br)c1", "Potency": "inconclusive: 7.08 µM [rising, full curve, poor fit]"}, {"compound": "COc1ccc2c(c1)C(c1cccs1)=NNC(c1ccncc1)=N2", "Potency": "inconclusive: 35.5 µM [falling, partial curve, poor fit]"}, {"compound": "O=C(NCc1ccc2c(c1)OCO2)C1CCN(c2ccc(S(=O)(=O)N3CCCC3)cc2)CC1", "activity change, negative = inhibition": "inconclusive: -17.2%"}, {"compound": "COc1nccnc1NS(=O)(=O)c1ccc(NC(=S)NC(=O)c2ccc(F)cc2)cc1", "activity change, negative = inhibition": "inactive: 0.916%"}, {"compound": "CC(C)c1cc(=O)oc2c3c4c(cc12)CCCN4CCC3", "activity change, negative = inhibition": "inconclusive: -0.272%"}, {"compound": "O=C(COC(=O)Cc1ccc(S(=O)(=O)N2CCOCC2)s1)Nc1ccc([N+](=O)[O-])cc1", "activity change, negative = inhibition": "inconclusive: 1.07%"}, {"compound": "CCc1ccc(OCC(=O)Nc2ccc(-c3cc4ccccc4oc3=O)c(OC)c2)cc1", "Potency": "inconclusive: 23.1 µM [falling, partial curve, poor fit]"}, {"compound": "Nc1c(N)c2ccccc2oc1=O", "Potency": "inconclusive: 4.61 µM [falling, partial curve]"}, {"compound": "Cc1nc(N2CCC(C)CC2)c2c(C)c(C(=O)Nc3ccccc3C(F)(F)F)sc2n1", "activity change, negative = inhibition": "inconclusive: -2.6%"}, {"compound": "COc1ccc(-c2c(-c3ccccc3OC)sc3ccccc23)cc1C=O", "activity change, negative = inhibition": "inconclusive: 9.05%"}, {"compound": "Cn1cc(/C=N/NC(=O)c2ccccc2O)c2ccccc21", "Potency": "inconclusive: 35.5 µM [rising, single point]"}, {"compound": "COc1ccc(S(=O)(=O)NCc2cccs2)cc1", "Potency": "inconclusive: 3.26 µM [falling, single point]"}, {"compound": "CC(=O)c1ccc2noc(-c3ccc(C)cc3)c2c1", "activity change, negative = inhibition": "inconclusive: 3.57%"}, {"compound": "COc1ccccc1C(=O)Nc1cc(-c2ccc(C)cc2)no1", "Potency": "inconclusive: 0.0891 µM [falling, full curve, poor fit]"}, {"compound": "CCO[C@@H]1OC(C(=O)N2CCOCC2)=C[C@H](c2coc3ccccc3c2=O)[C@H]1CCCO", "Potency": "inconclusive: 31.6 µM [falling, single point]"}, {"compound": "O=C(Nc1ccc(S(=O)(=O)N2CCCCC2)cc1)c1ccc(CN2CCOCC2)cc1", "Potency": "inconclusive: 29.1 µM [falling, single point]"}, {"compound": "O=C1NC(N2CCOCC2)=N/C1=C/c1ccc2c(c1)OCO2", "activity change, negative = inhibition": "inconclusive: -11.7%"}, {"compound": "O=C(CC(=O)c1ccccc1)Nc1ccc2c(c1)OCCO2", "Potency": "inconclusive: 25.1 µM [falling, partial curve]"}, {"compound": "Cc1ccc(S(=O)(=O)Nc2cc(C(C(=O)OC(C)C)C(=O)C(F)(F)F)c(O)c3ccccc23)c(C)c1", "note": "(stereo not drawn)", "activity change, negative = inhibition": "inconclusive: -9.05%"}, {"compound": "Nc1c(C(=O)N/N=C/c2cccnc2)oc2nc(-c3ccccc3)cc(-c3ccco3)c12", "Potency": "inconclusive: 3.98 µM [falling, partial curve, poor fit]"}, {"compound": "CCCS(=O)(=O)N1CCN(c2ccccc2F)CC1", "activity change, negative = inhibition": "inconclusive: 11.3%"}, {"compound": "O=C(Nc1ccc2c(c1)OCO2)c1ccccc1SCC(=O)N1CCCC1", "activity change, negative = inhibition": "inactive: -22.4%"}, {"compound": "CCOC(=O)CSc1nc(=O)n2ccc(C)cc2n1", "activity change, negative = inhibition": "inconclusive: 4.31%"}, {"compound": "COc1ccc(NC(=O)c2[nH]ncc2[N+](=O)[O-])cc1", "Potency": "inconclusive: 25.1 µM [falling, single point]"}, {"compound": "Cc1ccc(-c2ccnc3nc(-n4cccc4)nn23)o1", "activity change, negative = inhibition": "inactive: 14.5%"}, {"compound": "COc1ccc(-c2nnn(CCC(=O)O)n2)cc1", "Potency": "inconclusive: 4.61 µM [falling, partial curve, poor fit]"}, {"compound": "CC(=O)c1ccc(NC(=S)Nc2cccc(Cl)c2C)cc1", "activity change, negative = inhibition": "inactive: -1.45%"}, {"compound": "Cc1cccc(Nc2nc(N)c([N+](=O)[O-])c(NCc3ccccc3)n2)c1", "Potency": "inconclusive: 35.5 µM [falling, single point]"}, {"compound": "CCOC(=O)c1c(C)[nH]c(C)c1S(=O)(=O)N1CCN(c2ccc([N+](=O)[O-])cc2)CC1", "activity change, negative = inhibition": "inconclusive: -18.2%"}, {"compound": "Cc1ccc(CNC(=O)CN(c2ccc(C)cc2)S(=O)(=O)c2c(C)n[nH]c2C)cc1", "activity change, negative = inhibition": "inconclusive: 3.4%"}, {"compound": "COCCNC(=O)C(=O)Nc1ccc(Br)cc1", "Potency": "inconclusive: 18.4 µM [falling, single point]"}, {"compound": "COc1ccc(/C=C/C(=O)c2ccc3c(c2)OCO3)cc1OC", "Potency": "inconclusive: 29.1 µM [falling, partial curve, poor fit]"}, {"compound": "C=CCn1c(C)cc(C(=O)CSc2nc3ccccc3[nH]2)c1C", "Potency": "inconclusive: 35.5 µM [falling, single point]"}, {"compound": "Cc1ccc2[nH]c(=O)c(CN(CCCN3CCOCC3)C(=O)NC3CCCCC3)cc2c1", "activity change, negative = inhibition": "inactive: 1.02%"}, {"compound": "CC1CN(Cc2ccccc2)c2nc3c(c(=O)n(C)c(=O)n3C)n2C1", "note": "(stereo not drawn)", "activity change, negative = inhibition": "inconclusive: -46.9%"}, {"compound": "CCN(CC)S(=O)(=O)c1cccc(NC(=O)C2SC(=Nc3ccc(C)cc3C)C(C(=O)NC(C)COC)=C2N)c1", "note": "(stereo not drawn)", "activity change, negative = inhibition": "inconclusive: -16.3%"}, {"compound": "O=C(COc1ccccc1C(=O)N/N=C\\c1ccc(O)c(O)c1)N/N=C/c1ccc(O)c(O)c1", "activity change, negative = inhibition": "inactive: 3.74%"}, {"compound": "Cc1ccc(O)c(C(=O)c2cnn(C(=O)Cc3csc(C)n3)c2)c1", "activity change, negative = inhibition": "inconclusive: 8.06%"}, {"compound": "CCOc1ccc(NS(=O)(=O)c2ccc(C)c(C(=O)NCCCn3ccnc3)c2)cc1", "activity change, negative = inhibition": "inactive: 3.91%"}, {"compound": "c1ccc2oc(C3=NNC(=NC4CC4)SC3)cc2c1", "Potency": "inconclusive: 20.6 µM [cytotoxic, partial curve]"}, {"compound": "CCCCN(C(=O)c1c(CC)noc1C)c1c(N)n(CCC)c(=O)[nH]c1=O", "activity change, negative = inhibition": "inactive: 3.17%"}, {"compound": "COc1ccc(NS(=O)(=O)c2ccc(N3CCOCC3)c(NC(=O)c3ccccc3Cl)c2)cc1", "activity change, negative = inhibition": "inactive: -1.88%"}, {"compound": "COc1ccc(C(=O)NC(=S)NCCO)cc1Br", "Potency": "inconclusive: 35.5 µM [falling, single point]"}, {"compound": "COc1cccc(/C=N/NC(=O)CSc2ccccc2C)c1OC", "activity change, negative = inhibition": "inconclusive: -0.0101%"}, {"compound": "CCCCn1[nH]c(-c2ccccc2)cc1=O", "Potency": "inconclusive: 29.1 µM [falling, single point]"}, {"compound": "Cc1[nH]n(C(N)=S)c(=O)c1N=Nc1ccc(S(=O)(=O)N2CCCCCC2)cc1", "Potency": "inconclusive: 0.082 µM [rising, full curve, poor fit]"}, {"compound": "CCc1nc2ccccc2c(=O)n1NC(=O)c1c(O)c2ccccc2n(CC)c1=O", "activity change, negative = inhibition": "inactive: 0.665%"}, {"compound": "CCOc1ccccc1NC(=S)N1CCN(c2ccccc2F)CC1", "activity change, negative = inhibition": "inactive: -2.53%"}, {"compound": "N#CC(C#N)=Cc1cc2ccccc2nc1N1CCOCC1", "activity change, negative = inhibition": "inactive: -8.6%"}, {"compound": "O=C(CCC(=O)c1cccs1)Nc1ccc(F)c(F)c1F", "Potency": "inconclusive: 18.4 µM [falling, partial curve]"}, {"compound": "O=C(Nc1ccc(Br)cc1)c1cccc(OC(=S)N2CCOCC2)c1", "activity change, negative = inhibition": "inconclusive: -26.4%"}, {"compound": "CN(c1ccccc1)c1ncnc2c1cnn2C", "activity change, negative = inhibition": "inconclusive: -4.03%"}, {"compound": "CCCC(c1nnnn1C(C)(C)C)N1CCN(c2ccccc2)CC1", "note": "(stereo not drawn)", "activity change, negative = inhibition": "inactive: -1.43%"}, {"compound": "CCOc1cc(/C=C/c2cc(C(=O)O)c3ccccc3n2)ccc1O", "activity change, negative = inhibition": "inconclusive: -15.2%"}, {"compound": "CCOC(=O)c1c(-c2ccc(-c3ccccc3)cc2)csc1NC(=O)c1cccc(N2C(=O)CCC2=O)c1", "activity change, negative = inhibition": "inactive: -4.27%"}, {"compound": "COc1cc2cc(Br)cc(Br)c2nc1C", "activity change, negative = inhibition": "inconclusive: 4.01%"}, {"compound": "COc1cc2[nH]c(=O)n(Cc3ccccc3Cl)c(=O)c2cc1OC", "activity change, negative = inhibition": "inactive: -17.6%"}, {"compound": "COc1ccc(/C=C(/CC(=O)NCc2ccc(Cl)cc2)c2nc3ccccc3s2)cc1", "activity change, negative = inhibition": "inconclusive: 0.0402%"}, {"compound": "CC(C)(C)c1ccc(-c2nnc3sc(-c4ccccn4)nn23)cc1", "activity change, negative = inhibition": "inconclusive: -18%"}, {"compound": "C=CCn1c(SCC(=O)Nc2nc(C)cs2)nnc1C(C)NC(=O)c1ccccc1Cl", "note": "(stereo not drawn)", "activity change, negative = inhibition": "inconclusive: 23.9%"}, {"compound": "CCCN1C(=O)C(O)(C2CC(=O)CC(C)(C)O2)c2ccccc21", "note": "(stereo not drawn)", "activity change, negative = inhibition": "inactive: -2.3%"}, {"compound": "CCOC(=O)C1=C(COc2ccccc2)NC(=O)NC1c1ccc(Br)cc1", "note": "(stereo not drawn)", "activity change, negative = inhibition": "inconclusive: -17.9%"}, {"compound": "CCc1noc(C)c1C(=O)NNC(=O)c1ccccc1Cl", "activity change, negative = inhibition": "inconclusive: 1.42%"}, {"compound": "CCN(CC)CCCn1c2c(c(SCC(=O)Nc3ccccc3Cl)nc1=O)CCC2", "Potency": "inconclusive: 5.8 µM [falling, partial curve]"}, {"compound": "CNC(=S)N1CCn2cccc2C1c1ccc(F)cc1", "note": "(stereo not drawn)", "activity change, negative = inhibition": "inactive: -0.262%"}, {"compound": "O=C(O)C1=CC[C@@H](c2ccc(Cl)cc2)N(S(=O)(=O)c2ccc(Cl)cc2)[C@H]1c1ccccc1", "activity change, negative = inhibition": "inconclusive: -17.9%"}, {"compound": "CCOC(=O)C1=C(C)NC(=O)NC1c1cn(-c2ccccc2)nc1-c1cccs1", "note": "(stereo not drawn)", "Potency": "inconclusive: 35.5 µM [falling, partial curve, poor fit]"}, {"compound": "CC1NC(=O)NC1CCCCCC(=O)NCCc1ccccc1", "note": "(stereo not drawn)", "activity change, negative = inhibition": "inconclusive: -1.93%"}, {"compound": "COc1ccccc1-c1nn2c(=O)cc(C)nc2s1", "activity change, negative = inhibition": "inconclusive: 1.18%"}, {"compound": "Cc1nc2cc(-c3ccc(Cl)cc3)nn2c(C)c1CCC(=O)NCc1ccco1", "Potency": "inconclusive: 1.16 µM [falling, full curve]"}, {"compound": "COC(=O)c1[nH]c2ccc(C)cc2c1NC(=O)CN1CCC(C)CC1", "activity change, negative = inhibition": "inconclusive: 3.2%"}, {"compound": "CNC(=S)N/N=C/c1c(C(=O)OC)cnn1-c1ccc(F)cc1F", "activity change, negative = inhibition": "inconclusive: -1.68%"}, {"compound": "Cc1cc(C)cc(NC(=S)/C(=C(\\[O-])c2ccc(Cl)s2)[n+]2cccc(C)c2)c1", "activity change, negative = inhibition": "inactive: -1.03%"}]}]}
